## Library screening results

Protein sequences, listed by entry. Tags and fused reporters are not part of them.
UniProt E9BF75, entry or part of it: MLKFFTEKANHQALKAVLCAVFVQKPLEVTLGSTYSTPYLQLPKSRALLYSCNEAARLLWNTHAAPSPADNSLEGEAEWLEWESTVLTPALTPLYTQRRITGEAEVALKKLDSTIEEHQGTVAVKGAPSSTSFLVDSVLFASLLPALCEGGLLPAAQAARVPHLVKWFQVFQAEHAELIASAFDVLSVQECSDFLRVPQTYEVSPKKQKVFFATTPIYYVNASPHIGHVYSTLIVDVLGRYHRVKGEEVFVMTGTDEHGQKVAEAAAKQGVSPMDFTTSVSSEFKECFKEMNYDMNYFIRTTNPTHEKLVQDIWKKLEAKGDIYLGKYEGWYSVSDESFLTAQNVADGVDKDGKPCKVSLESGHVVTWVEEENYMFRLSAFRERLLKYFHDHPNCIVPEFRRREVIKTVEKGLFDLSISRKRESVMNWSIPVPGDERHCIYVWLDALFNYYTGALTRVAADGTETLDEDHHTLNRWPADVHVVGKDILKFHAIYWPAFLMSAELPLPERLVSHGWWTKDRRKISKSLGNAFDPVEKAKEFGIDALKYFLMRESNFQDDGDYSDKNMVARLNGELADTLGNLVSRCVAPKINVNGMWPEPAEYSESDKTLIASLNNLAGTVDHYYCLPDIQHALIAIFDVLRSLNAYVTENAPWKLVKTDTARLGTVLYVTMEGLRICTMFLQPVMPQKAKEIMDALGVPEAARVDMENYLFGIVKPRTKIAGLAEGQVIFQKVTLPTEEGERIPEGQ

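Primary screen of methionyl-tRNA synthetase; the read-out is not stated. Target: Methionyl-tRNA synthetase (putative), Leishmania donovani (UniProt E9BF75). The test concentration is not given. Values are per cent inhibition. Size under these conditions: about 68,000 compounds, about 24 of them at 50% or above in at least one test.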

All values are in %.
How 0% and 100% were set is not recorded. Most values in the screen are low, and negative values occur.
The compounds are a random part of those screened.

Compound | inhibition
Cc1cc(CN(C)CC2CC(C3CCCCC3)=NO2)no1 (centres unmarked) | 5.974
Cc1nc2cc(=O)[nH]n2c(C)c1CC(=O)NCc1ccoc1 | 21.05
CC1CN(C)c2ccccc2CN1C(=O)c1ccoc1 (centres unmarked) | 9.699
CCCC(C)(C)NC(=O)CCN1CCOC1=O | 19.73
Cn1cccc1C(O)CNC(=O)c1ccc2nsnc2c1 (centres unmarked) | 5.352
CC(C)Nc1ncnc2c1CCN(C(=O)N1CCOCC1)CC2 | 6
CN(Cc1ccc(F)cc1)C(=O)Cn1nc(-c2ccc(F)cc2)oc1=O | -1.408
O=C(O)[C@]12CCCN(Cc3nccs3)[C@@H]1CCN(c1cnccn1)C2 | 11.17
COCc1nc(C2CC2)nn1-c1cc(Cl)ccc1OC | 10.03
CC(=O)N1CCCN(C(=O)c2ccn(-c3cccc(Cl)c3)n2)CC1 | 10.12
CC(C)c1nc(CN(C)S(=O)(=O)c2cccs2)cs1 | 7.666
COc1cc(CN(Cc2ccccn2)CC(C)C)cc2c1OCO2 | 9.51
Cc1cc(C2CCCN(CCCNS(C)(=O)=O)C2)n[nH]1 (centres unmarked) | 3.286
COC(=O)[C@H](C)NC(=O)CSCc1nc2sc(C(C)C)cc2c(=O)[nH]1 | 13.18
CC(C)N1CCc2c(CNC(=O)c3nccn3C)cncc2C1 | 15.69
CC(=O)N1CC(=O)N(c2ccccc2)CC12CCN(Cc1nccs1)C2 (centres unmarked) | 13.81
Cc1ccc2nc(C3CCCN3Cc3cccc(CCN)c3)[nH]c2c1 (centres unmarked) | 6.145
CCOCc1ccccc1CNc1ccc2nncn2n1 | 10.37
CN(C)CC1CN(Cc2coc(-c3ccccc3Cl)n2)CCO1 (centres unmarked) | 6.993
CC(C)OC(=O)c1ccc(Cl)c(NC(=O)NCCN2CCOCC2)c1 | 14.99
CNC(=O)C1Cc2ccccc2CN1CCCc1ccccc1 (centres unmarked) | 13.92
CC(C)NC(=O)N1CCC2(CC1)NC(=O)CC2c1ccncc1 (centres unmarked) | 12.11
O=C(Cn1cc(C2CC2)nn1)N(Cc1ccco1)Cc1cccs1 | 1.882
O=C(c1cnn(-c2ccccc2)c1)N1CCN(c2cnccn2)CC1 | 12.23
O=C1NCCN1C1CCN(CCOc2cccc3ccccc23)CC1 | 25.71
CN(Cc1nnc2ccccn12)C(=O)CC1CCCCC1 | 12.03
Cn1ncc2c1C(COCC1CC1)CN(C(=O)c1cscn1)C2 (centres unmarked) | 8
CC(C)N(Cc1ccc(Cl)c(Cl)c1)C(=O)CCn1cncn1 | 7.507
N[C@@H]1c2ccccc2C2(CCN(c3ccc(C(F)(F)F)cn3)CC2)[C@H]1O | 28.11
CCn1cc2c(n1)C(COCC1CC1)CN(C(=O)c1ccco1)C2 (centres unmarked) | 12.68
CCN(CCO)C(=O)c1cc(Cn2c(C)nc3ccccc32)[nH]n1 | 12.27
CC(Sc1nnc(C2CC2)n1CC(N)=O)c1ccc(F)c(Cl)c1 (centres unmarked) | 9.893
CCN1CC2(CCNCC2)COc2ccccc2S1(=O)=O | 15.35
COc1cccc2c1OCCCN(Cc1ccc(C(N)=O)c(=O)[nH]1)C2 | 2.507
CC(c1ccccc1)N(C)C(=O)CNCCn1cccn1 (centres unmarked) | 9.859
CS(=O)(=O)NCCNC(=O)Cc1ccc(Br)s1 | 15.69
O=C1CCOC[C@]2(CN(Cc3ccccc3)C[C@H]2c2cccnc2)N1 | 0.9434
O=C(N1CCOCC1)N1CCc2ncc(CN3CCCCC3)n2CC1 | 4.478
CCN(CC)[C@@H]1CN(Cc2cnn(C)c2)[C@@H]2COC[C@H]12 | 9.489
CCCc1n[nH]c(C2CN(C(=O)c3ccc[nH]3)CCO2)n1 (centres unmarked) | 17.04
COC[C@@]12CCO[C@@H]1CCN(C(=O)Cc1ccc(C)cc1)C2 | 10.62
CC(NC(=O)CCn1cccn1)c1cccs1 (centres unmarked) | 2.346
CN(C)C(=O)CN1CCC2(CCCN(Cc3ccsc3)C2)C1=O (centres unmarked) | 12.09
Cc1cc(NC(=O)NCCc2cscn2)nn1C | 23.26
CCc1nc(CN(C(C)=O)C2CCN(CC3CCOCC3)C2)no1 (centres unmarked) | 16.06
Cc1ccc(N2CC[C@H]3C[C@H](C(=O)NCc4ccco4)O[C@@H]3C2)cc1 | 12.33
CCSc1ccccc1C(=O)N1CC2(COC(C)(C)OC2)C1 | 10.79
CCn1ncnc1CN1CCC(CNC(=O)c2cccnc2O)C1 (centres unmarked) | 19.15
COCCn1cnnc1CCn1ccnc1-c1ccccc1Cl | 10.56
COc1c(CNCCNC(=O)c2ccco2)c(C)nn1C | 13.02
Cc1c(C(=O)N2CCCC(O)(CN(C)C)CC2)c2cc(O)ccc2n1C (centres unmarked) | -1.031
O=C(c1ccc2c(c1)CCCC2)N1CCOCC1c1ncon1 (centres unmarked) | 10.46
CC(C)(C)c1noc(CCCC(=O)NCC2CCS(=O)(=O)C2)n1 (centres unmarked) | 15.66
C[C@@H]1CN(C(=O)c2ccc(C#N)nc2)C[C@@]1(O)C1CC1 | 11.96
CCNC(=O)Cc1ccc(NC(=O)NC(CC)CC)cc1 | 11.18
O=C1N(c2ccc(F)cc2)Cc2n[nH]c(=O)n21 | 7.639
Cc1ccc(S(=O)(=O)Nc2ccc(-n3cccc3C(=O)O)c(C)c2)s1 | 5.634
CN(C)c1ccc(CNC(=O)NCCc2cn3ccccc3n2)cn1 | 9.687
CC(Cn1ccnc1)NC(=O)N1CCN(Cc2ccncc2)CC1 (centres unmarked) | 22.4
c1ccc(OCCN2CCc3c(ncn3C3CC3)C2)cc1 | 29.77
CC(C(=O)O)N1CCc2onc(-c3ccc4c(c3)OCO4)c2C1 (centres unmarked) | 7.453
NC(=O)c1ccc(N2CCCCC2)c(NC(=O)c2cncc(Br)c2)c1 | 3.937
Cc1ccc(C(=O)NCC(O)CN2CCCC2=O)c(C)c1 (centres unmarked) | -1.847
c1cc(CN2CCc3ncc(CN4CCCCC4)n3CC2)cs1 | -14.38
Cn1nccc1C1CCN(CC(=O)NCC2CC2)CC1 | 21.69
CNC(=O)c1cccc(NC(=O)NC(C)CCc2cccn2C)c1C (centres unmarked) | 12.77
CC1c2ncc(COc3cccnc3)n2CCN1Cc1ccco1 (centres unmarked) | 14.66
N#CC1=C(N)Nn2c(nnc2-c2ccccc2F)S1 | 9.329
CCCNC(=O)c1nc2c(o1)CN(c1ncccn1)C2 | 16.3
Cn1ncc2c1CN(Cc1cccnc1)CC2COCC1CC1 (centres unmarked) | 15.5
CN(Cc1ccc([S+](C)[O-])cc1)c1cncc(Br)c1 (centres unmarked) | 8.669
O=S(=O)(Cc1ccccc1F)NCCN1CCOCC1 | 14.63
CCn1cc(CN2CCCN(C(=O)c3c(C)oc(C)c3C)CC2)cn1 | 14.92
CCN1CCN(c2ccc(NC(C)c3nc(C(C)C)no3)c(C)c2)CC1 (centres unmarked) | 17.62
CCn1ncc2c1CN(C(=O)c1cscn1)CC2COC (centres unmarked) | 8
Cc1cc(-c2nccn2CCN2CCCCC2CO)oc1C (centres unmarked) | 8.675
Cc1ccc(NCc2ncc(C(C)(C)C)o2)c(Cl)c1 | 9.511
Cc1cc(C)n(Cc2cccc(C(=O)N3CCOCC3(C)C)c2)n1 | 6.859

8 of the entries, repeated:

{"compound": "O=S(=O)(Cc1ccccc1F)NCCN1CCOCC1", "inhibition": 14.63}
{"compound": "O=C1CCOC[C@]2(CN(Cc3ccccc3)C[C@H]2c2cccnc2)N1", "inhibition": 0.9434}
{"compound": "Cc1cc(C2CCCN(CCCNS(C)(=O)=O)C2)n[nH]1", "stereo": "centres unmarked", "inhibition": 3.286}
{"compound": "CCn1cc(CN2CCCN(C(=O)c3c(C)oc(C)c3C)CC2)cn1", "inhibition": 14.92}
{"compound": "CC(C)(C)c1noc(CCCC(=O)NCC2CCS(=O)(=O)C2)n1", "stereo": "centres unmarked", "inhibition": 15.66}
{"compound": "O=C(Cn1cc(C2CC2)nn1)N(Cc1ccco1)Cc1cccs1", "inhibition": 1.882}
{"compound": "COc1cc(CN(Cc2ccccn2)CC(C)C)cc2c1OCO2", "inhibition": 9.51}
{"compound": "CN(C)CC1CN(Cc2coc(-c3ccccc3Cl)n2)CCO1", "stereo": "centres unmarked", "inhibition": 6.993}

From ChEMBL document CHEMBL3988442, “University of Dundee, Small-Polar-MMV Screening Library” (2021).